# Data from the supplement of paper PMC7024190.
# The list shows a part of the results. Single values are uncertain here, since repeats match poorly.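 A first-round screen of about ten thousand compounds sought those raising reporter output, using human embryonic kidney cells briefly transfected with a plasmid carrying a Renilla luciferase gene driven by the HSV-TK promoter.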
# System: HEK 293FT
# Assay: log relative Renilla luciferase luminescence (reporter expression vs reference, reference not stated) (log (base not stated)); higher = higher recombinant reporter expression
# Conditions: 10 µM; time after transfection 48 h
# Experimental: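 HEK 293FT cells transiently transfected with pRL-TK (Renilla luciferase) were treated with compounds at 10 uM and luminescence was read about 42 h later. Values are log relative Renilla luminescence (log base and reference not stated). Single-pass screen; ICCB Known Bioactives library.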
row,Compound,log
1,"CCCCC/C=C\C/C=C\C/C=C\CC1OC1CCCC(=O)O (centres undefined) [5,6-Epoxyeicosatrienoic acid]",0.0893
2,CC1=C(/C=C/C(C)=C\C=C\C(C)=C\C(=O)O)C(C)(C)CCC1 [9-cis Retinoic acid],0.201
3,CC(=O)OCOC(c1cc([N+](=O)[O-])ccc1Oc1ccc(Br)cc1)P(=O)(OCOC(C)=O)OCOC(C)=O (centres undefined),-0.0343
4,"CCCCCCCCCCCCC/C=C/[C@@H](O)[C@H](CO)N(C)C [N,N-Dimethylsphingosine]",-0.264
5,"CCCCCCCC/C=C\CCCCCCCC(=O)OCC(CO)OC(=O)CCCCCCC/C=C\CCCCCCCC (centres undefined) [1,2-Dioleoyl-glycerol (18:1)]",-0.276
6,CN(Cc1cnc2nc(N)nc(N)c2n1)c1ccc(C(=O)N[C@@H](CCC(=O)O)C(=O)O)cc1 [Methotrexate],-0.604
7,"CCCCCC1OC1CC=CCC=CCC=CCCCC(=O)O (centres undefined) [14,15-Epoxyeicosatrienoic acid]",0.306
8,CO[C@H]1C[C@@H]2CC[C@@H](C)[C@@](O)(O2)C(=O)C(=O)N2CCCC[C@H]2C(=O)O[C@H]([C@H](C)C[C@@H]2CC[C@@H](O)[C@H](OC)C2)CC(=O)[C@H](C)/C=C(\C)[C@@H](O)[C@@H](OC)C(=O)[C@H](C)C[C@H](C)/C=C/C=C/C=C/1C [Rapamycin],-0.597
9,CC(C)[C@H](NC(=O)CNC(=O)OC(C)(C)C)C(=O)N[C@H](C=O)C(C)C,0.206
10,CC[C@@]1(O)C(=O)OCc2c1cc1n(c2=O)Cc2cc3cc(O)ccc3nc2-1 [10-Hydroxycamptothecin],-0.859
11,CCCCCC(=O)/C=C/C=C\CCCCCCCC(=O)O [13-Ketooctadecadienoic acid],-0.134
12,CCCCCCCC/C=C\C/C=C\C/C=C\CCCC(=O)NCCO [Mead ethanolamide],-0.174
13,CCCCCC(O)CCCC(=O)O (centres undefined) [5-Hydroxydecanoate],0.0444
14,CCCCCC=CCC=CC=CC=CC(SCC(NC(C)=O)C(=O)O)C(O)CCCC(=O)O (centres undefined) [N-Acetyl-leukotriene E4],-0.063
15,CCCCC[C@H](O)/C=C/[C@H]1C(=O)C[C@H](O)[C@@H]1C/C=C\CCCC(=O)O [Prostaglandin D2],-0.0601
16,CCCCC/C=C\C\C=C/C=C/C=C/[C@@H](SC[C@H](N)C(=O)O)[C@@H](O)CCCC(=O)O [Leukotriene E4],-0.194
17,CCCNCC(O)COc1ccccc1C(=O)CCc1ccccc1 (centres undefined) [Propafenone],0.137
18,O[C@H]1[C@H]2c3cc4c(cc3CN3CCC(=C[C@@H]1O)[C@H]23)OCO4 [Lycorine],-1.56
19,"CCCCCCCCCCCCCC(=O)N[C@H](C)[C@@H](O)c1ccccc1 [MAPP, D-erythro]",-0.185
20,CCCCCCCCCCCCCCCC(=O)N[C@H](CN1CCOCC1)[C@H](O)c1ccccc1 (racemic),-0.0917

# Random excerpt: 3 records from the list, in no set order.
row,Compound,log
19,"CCCCCCCCCCCCCC(=O)N[C@H](C)[C@@H](O)c1ccccc1 [MAPP, D-erythro]",-0.185
7,"CCCCCC1OC1CC=CCC=CCC=CCCCC(=O)O (centres undefined) [14,15-Epoxyeicosatrienoic acid]",0.306
13,CCCCCC(O)CCCC(=O)O (centres undefined) [5-Hydroxydecanoate],0.0444

# Next part:

row,Compound,log
1,CC/C=C\C/C=C\C/C=C\CCCCCCCCCCCC(=O)O [Docosatrienoic acid (22:3 n-3)],-0.399
2,CC[N+](CC)(CC)CC(=O)Nc1c(C)cccc1C,0.217
3,CCCCCCCCCCCCC/C=C/[C@@H](O)[C@H](CO)NC(=O)CCCCCCC [C8 Ceramide],0.26
4,CC(/C=C/C(=O)NO)=C\[C@@H](C)C(=O)c1ccc(N(C)C)cc1 [Trichostatin-A],-0.146
5,COc1cc(C=C(C#N)C(N)=O)cc(CSc2nc3ccccc3s2)c1O [Tyrphostin AG-825],0.146
6,CCCCC/C=C\C/C=C\C/C=C\C/C=C\CCCC(=O)O[C@H](COCCCCCCCCCCCCCCCC)COP(=O)([O-])OCC[N+](C)(C)C [Arachidonoyl-PAF],0.161
7,CC1=C(C)C(=O)C(CCCCC#CCCCC#CCO)=C(C)C1=O,-0.28
8,NCCc1c[nH]cn1 [Histamine],0.371
9,C=C1CC[C@H](O)C/C1=C/C=C1\CCC[C@]2(C)[C@@H]([C@H](C)CCCC(C)(C)O)CC[C@@H]12 [25-Hydroxyvitamin D3],0.162
10,CCCCC[C@H](O)/C=C/[C@H]1C=CC(=O)[C@@H]1CCCCCCC(=O)O [Prostaglandin A1],-0.0562
11,"CCCCCC#CCC#CCC#CCC#CCCCC(=O)O [5,8,11,14-Eicosatetraynoic acid]",0.219
12,CCCCC/C=C\C/C=C\CCCCCCCC(=O)O[C@@H](CO)COC(=O)CCCCCCCCCCCCCCCCC [1-Stearoyl-2-linoleoyl-glycerol],-0.0446
13,CCCCC[C@H](O)/C=C/[C@H]1C(=O)C=C[C@@H]1C/C=C\CCCC(=O)O [Prostaglandin J2],-0.173
14,CC[C@H]1[C@@H]2C=C[C@@H]3[C@H]4C/C=C\C(=O)NCCC[C@@H]5NC(=O)C(=C5O)C(=O)CC[C@@H]4C[C@@H]3[C@H]2C[C@H]1C [Ikarugamyin],-0.0907
15,"C=C1/C(=C\C=C2/CCC[C@]3(C)[C@@H]([C@H](C)CCCC(C)(C)O)CC[C@@H]23)C[C@@H](O)C[C@@H]1O [1,25-Dihydroxyvitamin D3]",-0.495
16,COC(=O)C1=C(C)NC(C)=C(C(=O)OCCN(C)Cc2ccccc2)C1c1cccc([N+](=O)[O-])c1 (centres undefined) [Nicardipine],0.09
17,CC/C=C\C/C=C\C/C=C\C/C=C\C/C=C\C/C=C\CCC(=O)O [Docosahexaenoic acid (22:6 n-3)],-0.256
18,CCCCC/C=C\C[C@@H](O)/C=C/C=C/C=C\[C@@H](O)CCCC(=O)O [Leukotriene B4],0.135
19,COc1cc(/C=C/C(=O)CC(=O)/C=C/c2ccc(O)c(OC)c2)ccc1O [Curcumin],-0.526
